Laboratory results taken from doi:10.1101/2020.10.06.328815.
No constants are given. Whether binding was seen depends on the method and setting. Binding seen in cells or lysates may run through a third protein. Binding can be weak; no strength is given.

Target: T1, truncated Drosophila P element transposase D (residues 1-140) (Drosophila) (UniProt Q7M3K2)
T1 sequence: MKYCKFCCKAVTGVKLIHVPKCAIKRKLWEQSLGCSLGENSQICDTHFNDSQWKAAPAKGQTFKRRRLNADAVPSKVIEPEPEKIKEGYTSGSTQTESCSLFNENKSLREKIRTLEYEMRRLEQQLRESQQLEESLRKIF
Test: co-IP

“DmTNP deletion mutant D_Del-H (residues 1-99) (Drosophila) (domain or fragment)” was tested, and the binding was “binds”.
